Experimental data: patent EP0552417B1 (priority 1991, dated 1993)
Some peptides are written in HELM: one residue between dots, names in brackets for other building blocks, links after the first $. Non-standard residues stand in square brackets, D forms with d. *: point of attachment. Hyp = O=C(O)[C@@H]1C[C@@H](O)CN1; dPhg = N[C@@H](C(=O)O)c1ccccc1; dTle = CC(C)(C)[C@@H](N)C(=O)O; OPac = O=C(CO*)c1ccccc1; Boc = CC(C)(C)OC(=O)*; OBn = c1ccc(CO*)cc1; Bn = c1ccc(C*)cc1; For = O=C*

assay: general procedure: solution-phase peptide synthesis; DCC/HONB (ONB active esters); settings: coupling step

Substance	step yield
Boc-D-Thg(2)-Leu-D-Trp-D-Asp(OBzl)-Gln(Bzl)-Asp(OBzl)-OPac	97.9%
Boc-D-Trp-D-Asp(OBzl)-Asn(NHCH2CH2Ind)-Asp(OBzl)-D-Thg(2)-Leu-OPac	68.0%
Boc-[dD](OBn)WD(OBn)[dL]L-OPac	86.7%
PEPTIDE1{[dD].W.D.[dV].L.[dW]}$PEPTIDE1,PEPTIDE1,6:R2-1:R1$$$V2.0	93.2%
PEPTIDE1{[dD].W.D.[dL].L.[D-Trp(Ac)]}$PEPTIDE1,PEPTIDE1,1:R1-6:R2$$$V2.0	79.6%
Boc-D-Trp-D-Asp(OBzl)-Asn(CH2Ph)-Asp(OBzl)-D-Leu-Leu-OPac	81.6%
Boc-[dW][dD](OBn)E(OBn)A[dL]L-OPac	75.4%
Boc-[dW][dD](OBn)D(OBn)A[dL]L-OPac	77.0%
Boc-Asn(CH2CH2-Ind)-Asp(OBzl)-D-Leu-Leu-OPac	78.1%
Boc-[dW][dD](OBn)WD(OBn)[dL]L-OPac	93.1%
Boc-Orn(COCH2CH2Ph)-Asp(OBzl)-D-Leu-Leu-D-Trp-D-Asp(OBzl)-OPac	91.0%
Boc-[dW][dD](OBn)PD(OBn)[dL]L-OPac	78.7%
Boc-[dD](OBn)GA[dL]L-OPac	87.3%
Boc-[dTle]L[dW][dD](OBn)WD(OBn)-OPac	96.4%
Boc-D-γMeLeu-Leu-D-Trp-D-Asp(OBzl)-Trp-Asp(OBzl)-OPac	98.0%
Boc-[dD](OBn)E(OBn)A[dL]L-OPac	87.6%
Boc-[dW][dD](OBn)[Hyp](Bn)D(OBn)-OPac	98.9%
Boc-D-Trp-D-Asp(OBzl)-Asn(CH2CH2Ph)-Asp(OBzl)-D-Leu-Leu-OPac	90.5%
Boc-Orn(COCH2Ph)-Asp(OBzl)-D-Leu-Leu-D-Trp-D-Asp(OBzl)-OPac	78.4%
Boc-Asn(NHCH2CH2Ind)-Asp(OBzl)-D-Thg(2)-Leu-OPac	96.7%
Boc-[dL]L[dW][dD](OBn)-OPac	90.5%
Boc-D-Thg(2)-Leu-D-Trp-D-Asp(OBzl)-Asn(CH2CH2-Ind)-Asp(OBzl)-OPac	98.7%
Boc-D-Trp-D-Asp(OBzl)-Gln(Bzl)-Asp(OBzl)-OPac	94.2%
Boc-D(OBn)[dL]L[dW][dD](OBn)-OPac	82.5%
Boc-PD(OBn)[dL]L-OPac	89.5%
Boc-[dD](OBn)D(OBn)A[dL]L-OPac	87.0%
Boc-L[dW][dD](OBn)WD(OBn)-OPac	82.2%

Substance	step yield
Boc-Leu-D-Trp-D-Asp(OBzl)-Gln(Bzl)-Asp(OBzl)-OPac	89.3%
Boc-D-Asp(OBzl)-Asn(CH2CH2-Ind)-Asp(OBzl)-D-Leu-Leu-OPac	85.4%
Boc-Asn(CH2CH2Ph)-Asp(OBzl)-D-Leu-Leu-OPac	88.7%
Boc-[dW][dD](OBn)[Hyp](Bn)D(OBn)[dL]L-OPac	91.4%
Boc-[dW][dD](OBn)GA[dL]L-OPac	49.1%
PEPTIDE1{[dD].[dA].D.[dL].L.[dW]}$PEPTIDE1,PEPTIDE1,6:R2-1:R1$$$V2.0	91.8%
PEPTIDE1{[dD].[dP].D.[dL].L.[dW]}$PEPTIDE1,PEPTIDE1,6:R2-1:R1$$$V2.0	84.3%
cyclo([dD]WD[dL]L[dW](For))	91.1%
Boc-D-Thg(2)-Leu-D-Trp-D-Asp(OBzl)-Hyp(Bzl)-Asp(OBzl)-OPac	98.0%
Boc-Leu-D-Trp-D-Asp(OBzl)-Asn(CH2CH2-Ind)-Asp(OBzl)-OPac	91.4%
Boc-D(OBn)A[dL]L-OPac	94.2%
Boc-E(OBn)A[dL]L-OPac	92.4%
Boc-D-Trp-D-Asp(OBzl)-Asn(CH2CH2-Ind)-Asp(OBzl)-OPac	56.9%
PEPTIDE1{[dD].D.W.[dL].L.[dW]}$PEPTIDE1,PEPTIDE1,6:R2-1:R1$$$V2.0	90.0%
Boc-[dD](OBn)PD(OBn)[dL]L-OPac	91.2%
Boc-Asn(CH2Ph)-Asp(OBzl)-D-Leu-Leu-OPac	86.7%
Boc-D-Trp-D-Asp(OBzl)-Asn(CH2CH2-Ind)-Asp(OBzl)-D-Leu-Leu-OPac	89.5%
Boc-D-Asp(OBzl)-Asn(NHCH2CH2Ind)-Asp(OBzl)-D-Thg(2)-Leu-OPac	85.9%
Boc-Orn(COPh)-Asp(OBzl)-D-Leu-Leu-D-Trp-D-Asp(OBzl)-OPac	94.9%
Boc-D-Thg(2)-Leu-D-Trp-D-Asp(OBzl)-Trp-Asp(OBzl)-OPac	90.9%
Boc-WD(OBn)[dL]L-OPac	90.7%
Boc-[dD](OBn)[Hyp](Bn)D(OBn)[dL]L-OPac	84.3%
Boc-Acbu-Leu-D-Trp-D-Asp(OBzl)-Trp-Asp(OBzl)-OPac	94.0%
Boc-D-Asp(OBzl)-Asn(CH2CH2Ph)-Asp(OBzl)-D-Leu-Leu-OPac	93.5%
PEPTIDE1{[dD].W.D.[Acpe].L.[dW]}$PEPTIDE1,PEPTIDE1,1:R1-6:R2$$$V2.0	84.3%
Boc-[dW]D(OBn)WD(OBn)-OPac	80.3%
PEPTIDE1{[dD].W.E.[dL].L.[dW]}$PEPTIDE1,PEPTIDE1,6:R2-1:R1$$$V2.0	98.2%

same assay, conditions: cyclisation step

Substance	cyclisation yield
cyclo([dD]PD[dL]L[dW])	47.4%
cyclo from Boc-Acbu-Leu-D-Trp-D-Asp(OBzl)-Trp-Asp(OBzl)-OH	10.4%
cyclo([dD]EA[dL]L[dW])	20.6%
cyclo[-D-Asp-Orn(COPh)-Asp-D-Leu-Leu-D-Trp-]	48.1%
cyclo[-D-Asp-Orn(COCH2Ph)-Asp-D-Leu-Leu-D-Trp-]	2.9%
cyclo[-D-Asp-Hyp(Bzl)-Asp-D-Thg(2)-Leu-D-Trp-]	5.7%
cyclo[-D-Asp-Gln(Bzl)-Asp-D-Thg(2)-Leu-D-Trp-]	8.8%
cyclo[-D-Asp(OBzl)-Asn(NHCH2CH2Ind)-Asp(OBzl)-D-Thg(2)-Leu-D-Trp-]	90.4%
PEPTIDE1{[dD].A.[dE].[dL].L.[dW]}$PEPTIDE1,PEPTIDE1,6:R2-1:R1$$$V2.0	10.8%
cyclo([dD]WD[dL]L[dW])	52.9%
PEPTIDE1{[dD].A.[dD].[dL].L.[dW]}$PEPTIDE1,PEPTIDE1,6:R2-1:R1$$$V2.0	15.3%
cyclo[-D-Asp-Asn(CH2CH2Ph)-Asp-D-Leu-Leu-D-Trp-]	24.1%
cyclo([dD]GA[dL]L[dW])	19.2%
cyclo([dD]DA[dL]L[dW])	17.8%
PEPTIDE1{[dD].A.D.[dL].L.[dW]}$PEPTIDE1,PEPTIDE1,6:R2-1:R1$$$V2.0	18.2%
cyclo[-D-Asp-Orn(COCH2-Ind)-Asp-D-Leu-Leu-D-Trp-]	12.5%
cyclo[-D-Asp-Asn(CH2CH2-Ind)-Asp-D-Leu-Leu-D-Trp-]	19.4%
cyclo[-D-Asp-Asn(CH2Ph)-Asp-D-Leu-Leu-D-Trp-]	23.8%
cyclo[-D-Asp-Orn(COCH2CH2Ph)-Asp-D-Leu-Leu-D-Trp-]	40.9%
PEPTIDE1{[dD].A.E.[dL].L.[dW]}$PEPTIDE1,PEPTIDE1,6:R2-1:R1$$$V2.0	24.1%
cyclo[-D-Asp-Asn(CH2CH2-Ind)-Asp-D-Thg(2)-Leu-D-Trp-]	9.5%
cyclo([dD]WD[dTle]L[dW])	42.8%
cyclo[-D-Asp-Trp-Asp-D-Thg(2)-Leu-D-Trp-]	4.6%

same assay, conditions: late stage modification step

Substance	step yield
Boc-[dW][dD](OBn)D(OBn)A[dL]L-OH	81.0%
Boc-D-Trp-D-Asp(OBzl)-Asn(NHCH2CH2Ind)-Asp(OBzl)-D-Thg(2)-Leu-OH	98.0%
Boc-Acbu-Leu-D-Trp-D-Asp(OBzl)-Trp-Asp(OBzl)-OH	97.5%
Boc-Orn(COCH2-Ind)-Asp(OBzl)-D-Leu-Leu-D-Trp-D-Asp(OBzl)-OH	97.6%
Boc-D-γMeLeu-Leu-D-Trp-D-Asp(OBzl)-Trp-Asp(OBzl)-OH	97.8%
Boc-D-Trp-D-Asp(OBzl)-Asn(CH2CH2Ph)-Asp(OBzl)-D-Leu-Leu-OH	97.3%
Cyclo[-D-Asp-Azc-Asp-D-Leu-Leu-D-Trp-]	93.5%
cyclo([dD][Hyp](Bn)D[dL]L[dW])	82.6%
Boc-[dW][dD](OBn)GA[dL]L-OH	87.5%
Boc-Orn(COPh)-Asp(OBzl)-D-Leu-Leu-D-Trp-D-Asp(OBzl)-OH	97.8%
Boc-D-Trp-D-Asp(OBzl)-Asn(CH2Ph)-Asp(OBzl)-D-Leu-Leu-OH	96.1%
Boc-D-Thg(2)-Leu-D-Trp-D-Asp(OBzl)-Hyp(Bzl)-Asp(OBzl)-OH	99.7%
Boc-[dW][dD](OBn)E(OBn)A[dL]L-OH	91.4%
Boc-D-Thg(2)-Leu-D-Trp-D-Asp(OBzl)-Gln(Bzl)-Asp(OBzl)-OH	94.2%
Boc-[dW][dD](OBn)PD(OBn)[dL]L-OH	97.9%
Boc-[dTle]L[dW][dD](OBn)WD(OBn)-OH	97.6%
Boc-Orn(COCH2Ph)-Asp(OBzl)-D-Leu-Leu-D-Trp-D-Asp(OBzl)-OH	97.2%
PEPTIDE1{[dD].V.D.[dL].L.[dW]}$PEPTIDE1,PEPTIDE1,6:R2-1:R1$$$V2.0	93.5%
cyclo([dD]WD[dPhg]L[dW])	93.0%
Boc-D-Thg(2)-Leu-D-Trp-D-Asp(OBzl)-Trp-Asp(OBzl)-OH	98.3%
Boc-D-Trp-D-Asp(OBzl)-Asn(CH2CH2-Ind)-Asp(OBzl)-D-Leu-Leu-OH	92.5%
Boc-D-Thg(2)-Leu-D-Trp-D-Asp(OBzl)-Asn(CH2CH2-Ind)-Asp(OBzl)-OH	98.0%
Boc-Orn(COCH2CH2Ph)-Asp(OBzl)-D-Leu-Leu-D-Trp-D-Asp(OBzl)-OH	98.3%
Boc-[dW][dD](OBn)WD(OBn)[dL]L-OH	96.1%

same assay, conditions: purification step

Substance	step yield
cyclo([dD][Hyp](Bn)D[dL]L[dW])	79.0%
